Laboratory results: PubChem BioAssay AID1508588 (Peter MacCallum Cancer Centre, 2020)
The whole screen tested about 18,000 reagents; this is an unselected part. Over the whole deposit, 790 (4.4%) were called active. 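Calls rest on a combination of fold-change classes in drug and vehicle arms, not all shown here.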 Unmarked entries are inactive. No sequences are given here.

Assay: 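Which gene losses make BRAF-mutant melanoma cells more responsive to vemurafenib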 (primary screen)
System: human WM266.4 melanoma cells (BRAF V600 mutant)
Reagents: siRNA pool against human genes, 40 nM
Time to read-out: 96 h from transfection to read-out
Treatment: vemurafenib 300 nM (about IC25), added 48 h after transfection, for 48 h; comparison arm got DMSO vehicle only
Detection: 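Cell gain (DAPI nuclei at end minus before drug, mean of two replicates) and medium lactate by absorbance per cell, both as ratio to non-targeting siRNA, also grouped into fold-change classes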
Direction: cell gain with vemurafenib: higher = more cell gain than with non-targeting siRNA; lactate per cell with vemurafenib: higher = more lactate made per cell
Hit rule: 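Enhancement is called by pairing each knock-down's vehicle-arm and drug-arm fold-change classes for viability or glycolysis; which class combinations qualify is not given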
Calls: active = enhances vemurafenib effect; inactive = no enhancement seen

gene	cell gain with vemurafenib	lactate per cell with vemurafenib
PPP1R3A	0.76	0.52
TRNP1	0.51	0.42
FOLR1	0.23	1.45
KLHL42	0.46	1.29
PLA2G6	0.28	1.1
NTRK2	0.97	0.62
LAMB4	0.61	1.72
ATP6V1G2	0.9	0.93
ARHGEF1	0.76	1.54
CRIP3	0.87	0.82
RRAGB	0.41	0.9
PAFAH1B2	0.57	0.7
STAP2	0.84	0.86
BACH2	0.42	2.16
SNX4	0.58	1
OR10A5	0.03	0.96
SLC17A6	0.84	0.54
PDLIM4	0.95	0.72
CHGB	0.97	0.9
HTR2B	0.5	1.04
FCER1A	0.57	1.25
SPINK6	0.25	1.19
EEF1A1	0.15	2.28
KCNH7	0.67	0.21
MAP2	0.82	0.78
DRC8	0.35	1.4
DOK3	0.8	1.06
EIF4G1	0	2.14
KRT78	0.3	1.32
ACR	0.69	0.82
XRCC1	0.73	0.41
GIMAP5	0.29	0.73
RWDD3	0.83	0.5
GPR83	0.67	0.88
FSD1	0.62	0.62
RAG1	0.41	1.24
PICK1	0.53	1.28
CD244	1.17	0.73
TRIM8	0.99	0.74
BNIP1	0.35	1.59
ARTN	0.66	0.99
GM2A	0.63	1.26
DSTYK	0.72	0.53
NADK2	0.6	0.8
ACSBG2	1.31	0.6
PRKCQ	0.7	0.76
GPAA1	0.65	0.54
CLMB	0.63	0.67
ASIP	0.83	0.68
CNBD1	0.66	0.9
ACO1	0.3	0.72
SYNRG	0.35	0.52
ZCWPW2	0.68	0.6
SCN1B	0.42	1.34
CD40	0.79	1.36
KRTCAP3	1.12	0.52

Targets above whose gene name starts with P or p:
gene	cell gain with vemurafenib	lactate per cell with vemurafenib
PPP1R3A	0.76	0.52
PLA2G6	0.28	1.1
PAFAH1B2	0.57	0.7
PDLIM4	0.95	0.72
PICK1	0.53	1.28
PRKCQ	0.7	0.76

Additional records follow.
gene	cell gain with vemurafenib	lactate per cell with vemurafenib
ASL	1.11	0.63
DNAJB7	0.3	0.4
JPH3	0.43	2.22
OR4D6	0.4	0.62
ZNF236	1.16	0.92
LRFN4	0.71	0.4
PDPR	0.35	1.64
MIGA1	-0.06	-0.12
SERF1A	0.47	1.42
NXPE2	0.63	0.99
SRMS	0.05	1.12
DEFB106A	0.86	1.1
RPS4Y1	0.51	0.51
GBA1	0.13	1.25
DOCK8	0.43	1.52
CD151	0.28	1.77
METAP1	0.68	1.04
TSACC	0.16	2.84
SELENOH	0.59	1.36
AKIRIN2	0.27	1.36
DMRTA1	0.05	0.76
OR7D4	0.71	1.26
SLC25A15	0.86	1.07
MRPL54	0.46	0.85
EAPP	1.15	0.68
UBE2O	0.75	0.77
NLRP14	0.81	0.86
ATE1	0.93	0.78
